For this assay, the target named is MUC5AC in the mucus layer on HT29-MTX cells (human (endogenous in HT29-MTX)) (UniProt P98088). In words: incubation of saliva with cell layers, western blot of cell homogenates; 1 ml whole mouth saliva on HT29 or HT29-MTX cell layers (day 4, 8, 16), 20 minutes or 1 hour at 37°C, PBS wash, cells homogenised in RIPA buffer, immunoblot.

Chains of the proteins cited; added tags and fusions are not shown. Residues count along the entry.
UniProt P98088, residues 28-5654: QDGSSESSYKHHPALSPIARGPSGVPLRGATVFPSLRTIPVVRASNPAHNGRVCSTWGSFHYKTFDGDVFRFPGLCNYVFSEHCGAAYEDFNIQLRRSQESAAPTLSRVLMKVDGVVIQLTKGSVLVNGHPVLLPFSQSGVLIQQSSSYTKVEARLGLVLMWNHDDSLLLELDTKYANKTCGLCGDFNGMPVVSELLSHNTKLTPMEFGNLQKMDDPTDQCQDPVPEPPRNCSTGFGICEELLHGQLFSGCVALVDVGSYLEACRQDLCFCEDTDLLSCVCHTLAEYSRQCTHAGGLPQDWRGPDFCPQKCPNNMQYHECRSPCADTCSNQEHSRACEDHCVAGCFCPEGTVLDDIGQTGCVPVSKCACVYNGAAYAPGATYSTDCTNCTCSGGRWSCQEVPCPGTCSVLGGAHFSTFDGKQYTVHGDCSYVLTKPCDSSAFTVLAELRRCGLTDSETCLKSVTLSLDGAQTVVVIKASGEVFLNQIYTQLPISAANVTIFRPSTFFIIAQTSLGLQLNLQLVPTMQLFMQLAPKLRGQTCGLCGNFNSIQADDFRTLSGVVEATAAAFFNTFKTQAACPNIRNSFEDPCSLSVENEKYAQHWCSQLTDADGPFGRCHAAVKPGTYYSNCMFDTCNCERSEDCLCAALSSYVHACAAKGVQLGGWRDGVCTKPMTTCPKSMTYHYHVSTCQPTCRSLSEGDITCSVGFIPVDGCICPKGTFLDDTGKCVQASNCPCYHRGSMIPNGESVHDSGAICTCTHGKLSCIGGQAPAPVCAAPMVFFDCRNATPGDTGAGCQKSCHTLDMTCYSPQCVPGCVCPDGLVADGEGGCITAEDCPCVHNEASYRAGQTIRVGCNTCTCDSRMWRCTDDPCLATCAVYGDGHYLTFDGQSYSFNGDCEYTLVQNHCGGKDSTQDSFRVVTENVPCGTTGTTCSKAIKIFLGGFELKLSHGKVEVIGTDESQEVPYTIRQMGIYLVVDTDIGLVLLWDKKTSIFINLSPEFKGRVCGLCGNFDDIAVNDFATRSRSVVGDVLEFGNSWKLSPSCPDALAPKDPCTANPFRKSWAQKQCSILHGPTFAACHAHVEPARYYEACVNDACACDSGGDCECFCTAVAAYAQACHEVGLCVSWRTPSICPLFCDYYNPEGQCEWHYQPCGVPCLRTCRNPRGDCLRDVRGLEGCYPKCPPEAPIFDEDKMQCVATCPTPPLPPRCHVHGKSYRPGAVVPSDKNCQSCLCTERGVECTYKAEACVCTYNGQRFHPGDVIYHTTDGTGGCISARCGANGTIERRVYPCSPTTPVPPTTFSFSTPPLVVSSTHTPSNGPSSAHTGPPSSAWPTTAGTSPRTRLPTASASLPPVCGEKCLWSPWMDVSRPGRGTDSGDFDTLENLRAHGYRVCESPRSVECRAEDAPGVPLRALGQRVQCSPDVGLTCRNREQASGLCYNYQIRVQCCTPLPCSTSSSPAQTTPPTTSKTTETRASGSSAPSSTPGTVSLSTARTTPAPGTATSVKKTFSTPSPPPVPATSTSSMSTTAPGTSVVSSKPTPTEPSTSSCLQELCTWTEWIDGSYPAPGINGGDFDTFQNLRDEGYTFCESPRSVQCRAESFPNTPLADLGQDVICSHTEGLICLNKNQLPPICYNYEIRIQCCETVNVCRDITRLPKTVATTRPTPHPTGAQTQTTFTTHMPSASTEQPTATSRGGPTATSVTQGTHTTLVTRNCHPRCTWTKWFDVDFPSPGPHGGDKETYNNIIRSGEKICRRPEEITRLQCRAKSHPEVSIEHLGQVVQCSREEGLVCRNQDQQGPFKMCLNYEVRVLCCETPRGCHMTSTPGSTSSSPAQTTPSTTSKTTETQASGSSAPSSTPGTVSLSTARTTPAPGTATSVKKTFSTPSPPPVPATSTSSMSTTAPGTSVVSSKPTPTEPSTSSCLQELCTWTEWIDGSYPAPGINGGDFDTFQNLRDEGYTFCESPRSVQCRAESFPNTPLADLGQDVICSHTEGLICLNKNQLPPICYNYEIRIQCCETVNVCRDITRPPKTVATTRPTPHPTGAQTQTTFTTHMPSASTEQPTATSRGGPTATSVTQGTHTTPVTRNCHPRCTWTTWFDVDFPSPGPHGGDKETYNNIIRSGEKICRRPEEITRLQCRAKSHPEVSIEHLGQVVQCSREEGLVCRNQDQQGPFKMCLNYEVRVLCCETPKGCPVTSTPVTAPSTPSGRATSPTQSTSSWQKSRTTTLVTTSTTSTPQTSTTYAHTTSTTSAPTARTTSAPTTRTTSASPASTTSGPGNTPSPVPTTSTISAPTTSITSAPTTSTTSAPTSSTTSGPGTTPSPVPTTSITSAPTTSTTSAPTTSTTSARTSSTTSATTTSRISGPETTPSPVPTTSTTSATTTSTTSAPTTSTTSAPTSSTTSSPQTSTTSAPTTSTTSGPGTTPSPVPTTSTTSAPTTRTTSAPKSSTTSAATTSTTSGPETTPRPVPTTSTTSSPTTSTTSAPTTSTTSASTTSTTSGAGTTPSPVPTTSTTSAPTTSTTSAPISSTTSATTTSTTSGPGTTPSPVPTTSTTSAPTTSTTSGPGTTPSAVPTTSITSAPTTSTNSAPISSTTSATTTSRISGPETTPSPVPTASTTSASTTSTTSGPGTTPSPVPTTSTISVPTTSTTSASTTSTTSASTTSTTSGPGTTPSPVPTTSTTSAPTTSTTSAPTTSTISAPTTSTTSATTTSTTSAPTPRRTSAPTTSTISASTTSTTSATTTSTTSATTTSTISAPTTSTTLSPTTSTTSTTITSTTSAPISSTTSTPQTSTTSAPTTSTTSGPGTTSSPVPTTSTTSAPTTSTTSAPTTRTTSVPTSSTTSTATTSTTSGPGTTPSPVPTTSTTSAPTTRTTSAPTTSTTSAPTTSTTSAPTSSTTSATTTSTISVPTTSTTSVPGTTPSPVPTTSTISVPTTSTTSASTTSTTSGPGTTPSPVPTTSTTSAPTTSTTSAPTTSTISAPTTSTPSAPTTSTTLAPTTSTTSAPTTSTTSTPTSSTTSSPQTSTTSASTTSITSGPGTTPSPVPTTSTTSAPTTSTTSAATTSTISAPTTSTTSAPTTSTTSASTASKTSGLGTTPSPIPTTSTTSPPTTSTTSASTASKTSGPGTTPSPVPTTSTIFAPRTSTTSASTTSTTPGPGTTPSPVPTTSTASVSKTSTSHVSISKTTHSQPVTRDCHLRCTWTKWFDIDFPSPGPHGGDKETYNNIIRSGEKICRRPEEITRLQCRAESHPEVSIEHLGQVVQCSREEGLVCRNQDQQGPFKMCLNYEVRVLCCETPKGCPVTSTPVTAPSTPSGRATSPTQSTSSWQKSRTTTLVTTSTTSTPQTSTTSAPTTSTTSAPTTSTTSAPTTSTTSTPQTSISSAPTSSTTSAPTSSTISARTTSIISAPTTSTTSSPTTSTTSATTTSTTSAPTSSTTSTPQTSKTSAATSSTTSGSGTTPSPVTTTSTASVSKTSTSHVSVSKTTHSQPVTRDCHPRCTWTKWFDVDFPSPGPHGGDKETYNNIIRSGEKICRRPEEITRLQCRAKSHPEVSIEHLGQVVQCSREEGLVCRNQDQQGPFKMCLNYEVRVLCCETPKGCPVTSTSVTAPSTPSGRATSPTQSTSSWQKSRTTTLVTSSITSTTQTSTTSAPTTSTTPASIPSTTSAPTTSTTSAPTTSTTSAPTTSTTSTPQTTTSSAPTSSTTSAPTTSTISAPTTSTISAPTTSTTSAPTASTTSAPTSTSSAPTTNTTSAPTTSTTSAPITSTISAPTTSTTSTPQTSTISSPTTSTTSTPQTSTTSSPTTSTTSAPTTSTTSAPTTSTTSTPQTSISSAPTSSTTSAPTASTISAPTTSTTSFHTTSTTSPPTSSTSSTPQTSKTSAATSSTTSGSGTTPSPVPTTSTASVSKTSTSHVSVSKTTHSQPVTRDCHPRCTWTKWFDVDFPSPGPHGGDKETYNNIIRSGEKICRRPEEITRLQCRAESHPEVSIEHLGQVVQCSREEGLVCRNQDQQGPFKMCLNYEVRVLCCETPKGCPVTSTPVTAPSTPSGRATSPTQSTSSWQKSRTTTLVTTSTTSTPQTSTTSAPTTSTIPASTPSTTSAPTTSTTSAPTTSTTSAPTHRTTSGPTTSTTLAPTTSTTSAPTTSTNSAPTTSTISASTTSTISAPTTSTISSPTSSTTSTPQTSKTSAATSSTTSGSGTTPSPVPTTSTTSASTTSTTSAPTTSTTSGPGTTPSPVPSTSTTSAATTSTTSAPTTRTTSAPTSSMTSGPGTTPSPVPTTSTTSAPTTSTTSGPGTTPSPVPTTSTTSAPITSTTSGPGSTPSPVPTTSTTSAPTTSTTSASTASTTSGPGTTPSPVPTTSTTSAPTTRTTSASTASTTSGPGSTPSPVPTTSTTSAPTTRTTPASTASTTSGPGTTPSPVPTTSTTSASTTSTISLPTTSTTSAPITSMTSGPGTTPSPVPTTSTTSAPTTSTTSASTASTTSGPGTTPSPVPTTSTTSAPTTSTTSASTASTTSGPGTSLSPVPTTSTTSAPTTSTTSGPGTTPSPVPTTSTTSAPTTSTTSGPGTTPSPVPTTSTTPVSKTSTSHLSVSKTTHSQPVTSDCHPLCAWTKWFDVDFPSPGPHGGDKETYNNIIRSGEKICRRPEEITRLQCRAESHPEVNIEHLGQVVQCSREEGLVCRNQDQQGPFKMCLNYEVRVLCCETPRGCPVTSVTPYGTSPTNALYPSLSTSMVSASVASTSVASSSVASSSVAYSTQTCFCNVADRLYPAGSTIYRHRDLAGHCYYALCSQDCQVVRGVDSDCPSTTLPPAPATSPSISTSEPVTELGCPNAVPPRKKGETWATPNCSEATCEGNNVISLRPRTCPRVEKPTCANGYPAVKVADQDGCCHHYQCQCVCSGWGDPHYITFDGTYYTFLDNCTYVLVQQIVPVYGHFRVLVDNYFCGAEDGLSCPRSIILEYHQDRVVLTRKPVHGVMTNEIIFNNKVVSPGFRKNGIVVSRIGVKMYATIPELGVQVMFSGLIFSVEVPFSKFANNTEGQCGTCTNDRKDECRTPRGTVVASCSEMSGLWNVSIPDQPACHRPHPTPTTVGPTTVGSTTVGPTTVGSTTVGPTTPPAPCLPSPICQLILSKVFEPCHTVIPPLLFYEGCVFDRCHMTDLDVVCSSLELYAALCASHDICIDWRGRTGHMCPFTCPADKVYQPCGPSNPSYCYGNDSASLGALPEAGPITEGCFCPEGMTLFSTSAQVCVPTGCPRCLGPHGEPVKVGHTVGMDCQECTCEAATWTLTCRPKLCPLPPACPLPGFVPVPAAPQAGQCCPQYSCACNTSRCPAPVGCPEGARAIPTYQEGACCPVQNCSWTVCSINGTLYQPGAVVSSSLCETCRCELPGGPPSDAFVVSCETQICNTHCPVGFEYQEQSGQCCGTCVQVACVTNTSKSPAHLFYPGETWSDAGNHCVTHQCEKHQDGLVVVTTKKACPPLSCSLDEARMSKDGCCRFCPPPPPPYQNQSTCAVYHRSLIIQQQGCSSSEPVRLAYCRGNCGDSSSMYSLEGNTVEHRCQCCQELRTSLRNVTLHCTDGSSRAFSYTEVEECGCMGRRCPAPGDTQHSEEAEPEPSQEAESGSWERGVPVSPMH
UniProt Q8TAX7, residues 23-377: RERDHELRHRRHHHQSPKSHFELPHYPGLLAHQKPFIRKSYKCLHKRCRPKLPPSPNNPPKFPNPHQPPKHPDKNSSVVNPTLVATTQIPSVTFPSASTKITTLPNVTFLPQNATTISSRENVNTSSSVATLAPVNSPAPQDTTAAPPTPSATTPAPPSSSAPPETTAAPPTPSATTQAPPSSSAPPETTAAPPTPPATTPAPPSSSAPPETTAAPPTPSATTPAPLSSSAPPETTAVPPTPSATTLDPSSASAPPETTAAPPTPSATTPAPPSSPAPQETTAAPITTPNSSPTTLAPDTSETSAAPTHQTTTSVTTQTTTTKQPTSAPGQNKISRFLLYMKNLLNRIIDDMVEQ

No constants are given. Whether binding was seen depends on the method and setting.

Consider “salivary MUC7 (from UniProt Q8TAX7 23-377)”, for which the binding result is given as “no binding”.

Source of the values: publication PMC4368717.
